Measurements as given in PMC4299809.
Results are given in words; binding and its absence hold for the method and conditions named.

Molecular target: HisDapGalNAcT2 (N-terminally HisDap-tagged soluble human UDP-GalNAc:polypeptide N-acetylgalactosaminyltransferase 2, amino acids 52-571) (human) (UniProt Q10471)
Experiment: SEC-MALS; Yarra SEC-2000 column; 100 uL injected at 0.13 mg/mL; running buffer 50 mM Tris, 300 mM NaCl, pH 8.0 (legend of Figure 3: 150 mM NaCl); 0.5 mL/min; both purified

Substance: HisDapGalNAcT2 (N-terminally HisDap-tagged soluble human UDP-GalNAc:polypeptide N-acetylgalactosaminyltransferase 2, amino acids 52-571) (from UniProt Q10471 52-571) (enzyme)
- binding: no binding (tested: 0.13 mg/mL)
